Laboratory results: PubChem BioAssay AID1224830 (NIAID, 2016)
Shown is a random part of about 18,000 reagents. Of all reagents, about 2,900 (16%) got an active call. 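Calls are made per well; low scores hint the gene aids the LPS response, high scores that it dampens it.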 Repeated entries: four replicate wells of each siRNA pool.

Test: 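Host factors that control LPS-induced TNF expression in human macrophages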 (primary screen)
System: human THP-1 monocytic leukaemia cells, TNF dual-luciferase reporter clone, PMA-differentiated to macrophage-like cells
Reagents: siRNA pool against human genes, 50 nM
Timing: LPS for 4 h, given about 3 days after siRNA transfection
Challenge: bacterial LPS (TLR4 ligand), 10 ng/ml
Measurement: 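Ratio of firefly to renilla light, scaled to the plate median and expressed as a robust z-score per replicate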
Scale: TNF reporter robust z-score: higher = stronger TNF reporter response to LPS
Active means: 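a well is active when its z-score exceeds 2.8 or falls below -1.5; control wells carry no call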

The first 6 records, to show the layout:
gene	TNF reporter robust z-score	outcome
KRTAP10-10	-0.01	inactive
KRTAP10-10	0.17	inactive
KRTAP10-10	-0.46	inactive
KRTAP10-10	0.67	inactive
DR1	1.44	inactive
DR1	0.45	inactive

Results, repeating the preview:
gene	TNF reporter robust z-score	outcome
KRTAP10-10	-0.01	inactive
KRTAP10-10	0.17	inactive
KRTAP10-10	-0.46	inactive
KRTAP10-10	0.67	inactive
DR1	1.44	inactive
DR1	0.45	inactive
DR1	3.13	active
DR1	2.21	inactive
ATP6V0E2	-0.78	inactive
ATP6V0E2	0.28	inactive
ATP6V0E2	-0.56	inactive
ATP6V0E2	0.59	inactive
DSCR9	0.04	inactive
DSCR9	1.32	inactive
DSCR9	1.38	inactive
DSCR9	0.25	inactive
UBE2A	-1.17	inactive
UBE2A	-0.31	inactive
UBE2A	-0.71	inactive
UBE2A	0.1	inactive
EMC7	-1.36	inactive
EMC7	-0.86	inactive
EMC7	-1.28	inactive
EMC7	-0.62	inactive
SEZ6L2	-0.44	inactive
SEZ6L2	-1.23	inactive
SEZ6L2	0.31	inactive
SEZ6L2	-0.31	inactive
NUDCD1	-0.39	inactive
NUDCD1	1.35	inactive
NUDCD1	-0.02	inactive
NUDCD1	-0.27	inactive
DPH3	0.3	inactive
DPH3	0.33	inactive
DPH3	0.08	inactive
DPH3	-0.93	inactive
NLRP7	-1.17	inactive
NLRP7	-0.73	inactive
NLRP7	-0.69	inactive
NLRP7	-0.45	inactive
VTCN1	-0.06	inactive
VTCN1	-0.59	inactive
VTCN1	0.86	inactive
VTCN1	0.56	inactive
VEGFD	-0.07	inactive
VEGFD	1.17	inactive
VEGFD	0.96	inactive
VEGFD	2.1	inactive
